{"sequences": {"note": "Chains of the proteins cited; added tags and fusions are not shown.", "UniProt P50527": "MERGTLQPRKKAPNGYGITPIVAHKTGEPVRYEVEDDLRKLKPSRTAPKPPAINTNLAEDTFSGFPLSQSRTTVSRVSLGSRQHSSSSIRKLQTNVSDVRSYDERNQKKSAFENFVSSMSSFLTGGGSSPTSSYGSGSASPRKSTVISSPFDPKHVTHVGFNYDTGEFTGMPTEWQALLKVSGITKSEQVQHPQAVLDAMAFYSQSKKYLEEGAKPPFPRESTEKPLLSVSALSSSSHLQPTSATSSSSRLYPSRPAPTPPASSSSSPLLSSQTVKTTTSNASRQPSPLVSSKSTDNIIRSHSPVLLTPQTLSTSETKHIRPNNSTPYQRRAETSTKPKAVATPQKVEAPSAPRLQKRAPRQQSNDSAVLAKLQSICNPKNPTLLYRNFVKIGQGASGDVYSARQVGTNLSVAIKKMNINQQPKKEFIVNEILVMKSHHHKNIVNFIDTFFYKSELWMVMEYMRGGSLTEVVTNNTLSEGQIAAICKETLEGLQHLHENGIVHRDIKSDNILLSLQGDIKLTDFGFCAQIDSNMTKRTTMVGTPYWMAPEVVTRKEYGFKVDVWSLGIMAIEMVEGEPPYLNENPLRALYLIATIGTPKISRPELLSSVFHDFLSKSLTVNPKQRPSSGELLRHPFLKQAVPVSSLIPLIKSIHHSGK"}, "source": "paper doi:10.1101/402990", "about": "(bioRxiv, 2018)", "binders": {"B1": {"name": "Tea3 (endogenous, untagged) (protein, UniProt O14248 1-1125)", "chain": "MVQKVLSRQSDNSQDVSAEQLDVVESGSIDQQNIRAWVVRKVKENDKRTSTNQSFKWEAVKPASCLDAANEKFMYLHGGREKSGISNSLFKLDLDSCTVYSHNRGEDNDSPARVGHSIVCSADTIYLFGGCDSETDSTFEVGDNSLYAYNFKSNQWNLVSTQSPLPSPRTGHSMLLVDSKLWIFGGECQGKYLNDIHLFDTKGVDRRTQSELKQKANANNVEKANMEFDETDWSWETPFLHSSSPPPRSNHSVTLVQGKIFVHGGHNDTGPLSDLWLFDLETLSWTEVRSIGRFPGPREGHQATTIDDTVYIYGGRDNKGLILNELWAFNYSQQRWSLVSNPIPILLSDSSSYKIVSKNNHILLLYLNALDAPKQLLCYEADPKNLYWDKDKFSDIPVLQHISMKPSNASNHTVSLGYLNDRPNHSKKNSVTSTSSSQFNNFLEQNQKAVRSARHRHYASLDEQGLHSLRNLSKTSGMNHSADFSLHEFGQADPFAYEIEKPIASLPLPNGNDTISRSSESSSPINESESNSLLKLQSDFKFSNSDDRVAWLEEQLLYCMQQGYTLKPPNLFQHVDEKLRLEKKEQLSYLEILKVIEQMLESNEQKFKKQIVSLASENAKLAAQRDAAVENANYSRSLIQKKTTDETVGSLIEKVGKLEYEVQGTLEEATSYYQKNTELQQLLKQNESASELLKSRNEKLCVDYDKLRSVFEEDSSKILSLQKENENLQSQILQISEELVDYRSRCEALEYGNYELETKLIEMHDRVEMQTNVIEASASALDVSNTAILSFEDSLRRERDEKSTLQQKCLNLQYEYENVRIELENLQSRALELESALEQSVSDAKYSKAIMQSGLSKLLSSINENKDNLKEFSKSKQKISYLESQLEGLHELLRESQRLCEGRTKELLNSQQKLYDLKHSYSSVMTEKSKLSDQVNDLTEQAKITQRKLSEVQIALADSKMNQQLSGKDSTDVHLPTDFSASSSPLRSYFNEEDSFNNASAAHSSKESDIPSGGVFTKYRNHFGNLMTSEETKAPDNNDLHKRLSDVINSQQKFLSLSPQVSKDYYDVRSKLNDTAGSFSGEEMRAIDDNYYASRIKQLEDDYQKAITYANCSDESFQQLSHSFM"}, "B2": {"name": "Tea3 (Tea3-GFP co-expressed with the untagged WT allele of Tea3) (protein, UniProt O14248 1-1125)", "chain": "B1 chain"}}, "key": {"GFP-Shk1 (S. pombe)": {"molecular_target": "GFP-Shk1 (S. pombe) (UniProt P50527)", "experiment": "co-IP"}, "[1]": {"molecular_target": "Tea3 (Tea3-GFP co-expressed with the untagged WT allele of Tea3) (S. pombe) (UniProt O14248)", "experiment": "co-IP"}}, "note": "These are yes or no findings as the source states them, for the method shown. In cells and extracts the contact can be indirect. Some entries that bind do so weakly or less than the wild type. Where a sequence is shown, tags or fusion partners need not be part of it.", "data": [{"binder": "B1", "values": [{"measurement": "binding", "setting": "GFP-Shk1 (S. pombe)", "value": "binds"}]}, {"binder": "B2", "values": [{"measurement": "binding", "setting": "[1]", "value": "binds"}]}]}
